Source: publication doi:10.1101/2023.11.21.568117
No constants are given. Whether binding was seen depends on the method and setting. Binding seen in cells or lysates may run through a third protein. Some entries that bind do so weakly or less than the wild type.

Sequences of proteins named here, by UniProt entry; tags and fusion partners are left off.
UniProt Q03347: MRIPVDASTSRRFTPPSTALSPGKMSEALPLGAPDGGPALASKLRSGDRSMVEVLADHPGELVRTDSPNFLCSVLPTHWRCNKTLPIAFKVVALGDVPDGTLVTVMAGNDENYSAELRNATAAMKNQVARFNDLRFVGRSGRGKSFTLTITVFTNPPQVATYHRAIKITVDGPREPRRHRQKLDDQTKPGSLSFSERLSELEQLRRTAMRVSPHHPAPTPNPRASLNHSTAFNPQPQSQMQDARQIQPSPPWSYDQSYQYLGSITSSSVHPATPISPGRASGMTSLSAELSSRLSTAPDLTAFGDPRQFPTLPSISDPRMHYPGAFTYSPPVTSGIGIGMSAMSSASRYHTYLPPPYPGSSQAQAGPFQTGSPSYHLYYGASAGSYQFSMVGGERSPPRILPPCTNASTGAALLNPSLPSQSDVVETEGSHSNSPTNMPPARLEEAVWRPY
UniProt P28322: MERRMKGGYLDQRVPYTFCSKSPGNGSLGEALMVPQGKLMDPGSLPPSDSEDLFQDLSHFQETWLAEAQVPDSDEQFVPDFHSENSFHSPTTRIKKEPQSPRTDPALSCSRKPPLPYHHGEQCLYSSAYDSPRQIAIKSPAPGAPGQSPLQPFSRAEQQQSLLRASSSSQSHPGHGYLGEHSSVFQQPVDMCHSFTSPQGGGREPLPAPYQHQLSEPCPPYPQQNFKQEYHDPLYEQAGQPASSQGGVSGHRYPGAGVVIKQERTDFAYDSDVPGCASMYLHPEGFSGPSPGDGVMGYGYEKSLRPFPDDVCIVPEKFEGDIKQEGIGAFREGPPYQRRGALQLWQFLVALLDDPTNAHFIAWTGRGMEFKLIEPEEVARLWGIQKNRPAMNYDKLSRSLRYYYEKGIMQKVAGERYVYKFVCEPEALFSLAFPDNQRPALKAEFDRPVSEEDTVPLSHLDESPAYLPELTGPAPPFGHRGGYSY

Molecular target: Myc-tagged Runx1 (mouse) (UniProt Q03347)
Experiment: co-IP

Flag-ETV4 (from UniProt P28322 1-485)
binding: binds
